# Laboratory results reported in the supplement of paper PMC10032668.
# The chains behind the UniProt entries cited, without tags or fusion partners.
# LARP4, Q71RC2, UniProt Q71RC2, whole entry: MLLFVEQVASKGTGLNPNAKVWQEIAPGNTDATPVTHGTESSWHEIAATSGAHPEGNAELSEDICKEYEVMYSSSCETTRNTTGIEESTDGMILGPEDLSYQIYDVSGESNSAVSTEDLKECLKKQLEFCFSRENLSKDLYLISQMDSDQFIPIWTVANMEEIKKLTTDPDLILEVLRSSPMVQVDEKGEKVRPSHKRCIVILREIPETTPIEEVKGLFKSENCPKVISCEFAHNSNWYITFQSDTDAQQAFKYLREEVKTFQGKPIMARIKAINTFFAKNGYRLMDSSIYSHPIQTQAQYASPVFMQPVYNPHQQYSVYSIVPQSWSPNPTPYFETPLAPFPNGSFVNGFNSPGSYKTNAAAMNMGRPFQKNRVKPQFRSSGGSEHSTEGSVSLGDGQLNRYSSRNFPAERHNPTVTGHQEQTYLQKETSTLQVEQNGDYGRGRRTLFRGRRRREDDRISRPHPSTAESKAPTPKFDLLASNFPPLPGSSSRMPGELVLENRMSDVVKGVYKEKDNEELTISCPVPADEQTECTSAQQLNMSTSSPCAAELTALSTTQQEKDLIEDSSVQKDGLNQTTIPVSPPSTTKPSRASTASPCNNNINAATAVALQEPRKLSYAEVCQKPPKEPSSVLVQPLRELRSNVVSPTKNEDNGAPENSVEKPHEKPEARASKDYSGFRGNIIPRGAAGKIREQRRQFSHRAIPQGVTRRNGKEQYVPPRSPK
# CXXC1, Q9P0U4, UniProt Q9P0U4, whole entry: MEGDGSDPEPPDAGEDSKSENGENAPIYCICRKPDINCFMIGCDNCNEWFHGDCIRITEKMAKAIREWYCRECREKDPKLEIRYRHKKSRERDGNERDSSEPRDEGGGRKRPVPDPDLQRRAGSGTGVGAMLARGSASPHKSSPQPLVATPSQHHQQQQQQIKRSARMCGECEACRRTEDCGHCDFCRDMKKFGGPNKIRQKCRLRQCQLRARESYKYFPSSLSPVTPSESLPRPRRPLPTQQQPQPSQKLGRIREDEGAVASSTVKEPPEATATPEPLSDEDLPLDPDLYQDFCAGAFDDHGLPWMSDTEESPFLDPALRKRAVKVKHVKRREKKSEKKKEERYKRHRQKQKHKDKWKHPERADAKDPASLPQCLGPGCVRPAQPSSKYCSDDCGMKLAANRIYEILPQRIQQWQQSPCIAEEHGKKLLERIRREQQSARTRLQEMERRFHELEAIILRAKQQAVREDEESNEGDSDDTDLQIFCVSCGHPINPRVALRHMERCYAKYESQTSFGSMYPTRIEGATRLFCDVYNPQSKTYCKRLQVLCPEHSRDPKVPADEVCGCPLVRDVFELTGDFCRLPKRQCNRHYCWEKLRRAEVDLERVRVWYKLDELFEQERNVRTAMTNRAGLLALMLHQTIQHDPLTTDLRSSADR
# IK, Q13123, UniProt Q13123, whole entry: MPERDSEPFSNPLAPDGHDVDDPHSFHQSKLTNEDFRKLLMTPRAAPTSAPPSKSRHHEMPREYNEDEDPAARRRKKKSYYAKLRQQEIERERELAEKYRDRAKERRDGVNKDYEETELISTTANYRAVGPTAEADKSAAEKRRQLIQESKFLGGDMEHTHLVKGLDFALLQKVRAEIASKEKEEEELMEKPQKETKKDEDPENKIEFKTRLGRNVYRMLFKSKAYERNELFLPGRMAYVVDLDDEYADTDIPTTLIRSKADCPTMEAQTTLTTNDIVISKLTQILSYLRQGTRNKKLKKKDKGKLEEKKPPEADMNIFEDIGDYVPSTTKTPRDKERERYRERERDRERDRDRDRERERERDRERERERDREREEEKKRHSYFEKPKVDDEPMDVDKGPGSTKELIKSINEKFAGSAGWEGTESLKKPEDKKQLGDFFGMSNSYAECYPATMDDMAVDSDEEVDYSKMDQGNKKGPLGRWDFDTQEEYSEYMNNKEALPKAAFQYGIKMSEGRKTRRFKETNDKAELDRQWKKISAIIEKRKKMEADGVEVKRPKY
# DCTN3, O75935, UniProt O75935, whole entry: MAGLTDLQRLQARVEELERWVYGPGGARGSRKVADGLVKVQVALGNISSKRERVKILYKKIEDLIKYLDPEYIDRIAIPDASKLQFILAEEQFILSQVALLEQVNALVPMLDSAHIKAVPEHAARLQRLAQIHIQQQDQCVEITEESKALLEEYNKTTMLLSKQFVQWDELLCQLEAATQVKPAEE
# DMD, P11532, UniProt P11532, whole entry: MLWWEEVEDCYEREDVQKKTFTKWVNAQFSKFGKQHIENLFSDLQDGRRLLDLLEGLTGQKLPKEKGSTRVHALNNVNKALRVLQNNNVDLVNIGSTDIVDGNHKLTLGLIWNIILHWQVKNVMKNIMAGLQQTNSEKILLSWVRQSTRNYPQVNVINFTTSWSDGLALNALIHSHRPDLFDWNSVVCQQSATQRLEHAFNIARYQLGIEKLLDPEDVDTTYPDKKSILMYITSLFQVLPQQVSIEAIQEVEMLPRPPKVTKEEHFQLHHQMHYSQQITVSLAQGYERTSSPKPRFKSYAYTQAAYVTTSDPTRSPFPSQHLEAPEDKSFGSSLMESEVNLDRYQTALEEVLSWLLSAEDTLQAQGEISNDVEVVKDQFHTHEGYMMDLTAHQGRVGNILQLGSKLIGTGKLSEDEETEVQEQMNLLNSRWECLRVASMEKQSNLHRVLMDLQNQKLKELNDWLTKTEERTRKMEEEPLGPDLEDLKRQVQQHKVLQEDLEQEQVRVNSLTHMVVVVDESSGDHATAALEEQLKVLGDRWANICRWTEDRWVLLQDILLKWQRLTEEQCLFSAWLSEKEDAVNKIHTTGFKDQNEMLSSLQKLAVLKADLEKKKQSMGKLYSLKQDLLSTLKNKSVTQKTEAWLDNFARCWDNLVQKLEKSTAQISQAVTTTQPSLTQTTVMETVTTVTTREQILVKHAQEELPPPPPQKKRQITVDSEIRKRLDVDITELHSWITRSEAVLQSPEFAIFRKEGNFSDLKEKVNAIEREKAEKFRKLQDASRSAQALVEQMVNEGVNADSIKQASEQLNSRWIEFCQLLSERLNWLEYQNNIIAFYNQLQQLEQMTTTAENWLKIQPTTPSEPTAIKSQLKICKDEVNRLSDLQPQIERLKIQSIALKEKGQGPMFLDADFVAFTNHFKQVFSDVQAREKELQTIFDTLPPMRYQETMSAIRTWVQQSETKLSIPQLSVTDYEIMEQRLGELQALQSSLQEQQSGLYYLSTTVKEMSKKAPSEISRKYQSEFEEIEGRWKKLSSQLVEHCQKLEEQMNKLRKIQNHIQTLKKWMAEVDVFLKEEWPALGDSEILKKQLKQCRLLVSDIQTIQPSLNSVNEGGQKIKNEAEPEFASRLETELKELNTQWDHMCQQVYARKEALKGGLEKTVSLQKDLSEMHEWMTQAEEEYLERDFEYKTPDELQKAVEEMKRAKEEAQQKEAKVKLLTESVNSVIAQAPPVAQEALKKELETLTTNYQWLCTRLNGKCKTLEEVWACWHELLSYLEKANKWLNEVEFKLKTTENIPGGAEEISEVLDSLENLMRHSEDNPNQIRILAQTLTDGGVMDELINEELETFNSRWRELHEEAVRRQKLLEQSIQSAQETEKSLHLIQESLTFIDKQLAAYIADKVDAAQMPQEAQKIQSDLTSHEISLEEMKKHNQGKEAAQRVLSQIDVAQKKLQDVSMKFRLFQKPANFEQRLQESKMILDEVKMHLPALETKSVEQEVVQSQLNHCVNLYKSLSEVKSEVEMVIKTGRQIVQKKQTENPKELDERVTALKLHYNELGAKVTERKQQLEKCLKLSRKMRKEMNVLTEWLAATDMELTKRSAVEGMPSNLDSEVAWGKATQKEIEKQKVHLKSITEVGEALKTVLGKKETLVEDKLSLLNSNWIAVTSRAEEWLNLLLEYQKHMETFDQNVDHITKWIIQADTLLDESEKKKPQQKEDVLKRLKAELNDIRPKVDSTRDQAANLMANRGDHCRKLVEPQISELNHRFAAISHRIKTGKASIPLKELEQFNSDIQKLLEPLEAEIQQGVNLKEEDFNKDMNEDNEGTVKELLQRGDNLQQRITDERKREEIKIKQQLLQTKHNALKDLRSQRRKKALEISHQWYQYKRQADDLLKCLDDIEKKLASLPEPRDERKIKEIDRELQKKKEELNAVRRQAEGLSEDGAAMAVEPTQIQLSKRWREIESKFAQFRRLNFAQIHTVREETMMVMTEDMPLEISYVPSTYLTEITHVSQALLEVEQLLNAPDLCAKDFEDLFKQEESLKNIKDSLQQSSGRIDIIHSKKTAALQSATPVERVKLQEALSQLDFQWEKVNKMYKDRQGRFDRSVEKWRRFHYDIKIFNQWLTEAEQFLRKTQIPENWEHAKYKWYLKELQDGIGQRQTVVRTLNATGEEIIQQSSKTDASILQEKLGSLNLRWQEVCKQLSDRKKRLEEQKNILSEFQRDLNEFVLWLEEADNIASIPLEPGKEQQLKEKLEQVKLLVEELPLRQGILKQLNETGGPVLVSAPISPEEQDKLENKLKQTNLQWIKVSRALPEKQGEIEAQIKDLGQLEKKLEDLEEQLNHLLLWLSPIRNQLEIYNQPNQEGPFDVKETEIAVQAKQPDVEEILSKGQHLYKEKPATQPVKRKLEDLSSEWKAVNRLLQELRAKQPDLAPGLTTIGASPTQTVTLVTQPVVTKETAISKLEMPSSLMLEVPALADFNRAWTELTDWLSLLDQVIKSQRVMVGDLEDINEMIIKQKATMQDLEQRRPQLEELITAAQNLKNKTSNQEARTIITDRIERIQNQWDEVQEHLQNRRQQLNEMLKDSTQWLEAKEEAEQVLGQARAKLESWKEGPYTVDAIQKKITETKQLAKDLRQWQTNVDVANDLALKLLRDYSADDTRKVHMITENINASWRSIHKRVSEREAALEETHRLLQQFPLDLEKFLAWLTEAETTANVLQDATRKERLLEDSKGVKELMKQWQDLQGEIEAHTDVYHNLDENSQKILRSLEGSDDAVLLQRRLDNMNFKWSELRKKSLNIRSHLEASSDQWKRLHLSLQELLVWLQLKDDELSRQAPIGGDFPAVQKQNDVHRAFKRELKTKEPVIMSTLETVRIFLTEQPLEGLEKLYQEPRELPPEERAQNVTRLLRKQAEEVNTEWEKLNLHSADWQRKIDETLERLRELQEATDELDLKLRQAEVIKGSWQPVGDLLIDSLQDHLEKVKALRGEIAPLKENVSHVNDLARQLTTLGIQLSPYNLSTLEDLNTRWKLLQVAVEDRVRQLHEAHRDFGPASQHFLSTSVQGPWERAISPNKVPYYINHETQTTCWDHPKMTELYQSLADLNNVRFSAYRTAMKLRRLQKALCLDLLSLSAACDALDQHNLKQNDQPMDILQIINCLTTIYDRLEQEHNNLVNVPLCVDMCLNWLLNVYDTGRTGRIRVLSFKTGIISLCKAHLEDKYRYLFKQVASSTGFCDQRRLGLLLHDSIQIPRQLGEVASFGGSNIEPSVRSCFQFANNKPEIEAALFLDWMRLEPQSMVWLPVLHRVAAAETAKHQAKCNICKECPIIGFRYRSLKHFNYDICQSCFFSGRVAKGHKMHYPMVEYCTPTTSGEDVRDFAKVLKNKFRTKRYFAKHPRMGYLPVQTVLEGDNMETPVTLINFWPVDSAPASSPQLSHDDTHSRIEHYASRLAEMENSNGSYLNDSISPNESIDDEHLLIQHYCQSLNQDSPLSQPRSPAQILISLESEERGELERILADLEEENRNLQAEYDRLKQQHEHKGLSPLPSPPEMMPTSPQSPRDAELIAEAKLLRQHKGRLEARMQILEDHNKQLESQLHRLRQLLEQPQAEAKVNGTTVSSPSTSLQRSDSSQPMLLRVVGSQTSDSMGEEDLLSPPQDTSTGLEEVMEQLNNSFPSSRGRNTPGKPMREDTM
# DPYSL3, Q14195, UniProt Q14195, whole entry: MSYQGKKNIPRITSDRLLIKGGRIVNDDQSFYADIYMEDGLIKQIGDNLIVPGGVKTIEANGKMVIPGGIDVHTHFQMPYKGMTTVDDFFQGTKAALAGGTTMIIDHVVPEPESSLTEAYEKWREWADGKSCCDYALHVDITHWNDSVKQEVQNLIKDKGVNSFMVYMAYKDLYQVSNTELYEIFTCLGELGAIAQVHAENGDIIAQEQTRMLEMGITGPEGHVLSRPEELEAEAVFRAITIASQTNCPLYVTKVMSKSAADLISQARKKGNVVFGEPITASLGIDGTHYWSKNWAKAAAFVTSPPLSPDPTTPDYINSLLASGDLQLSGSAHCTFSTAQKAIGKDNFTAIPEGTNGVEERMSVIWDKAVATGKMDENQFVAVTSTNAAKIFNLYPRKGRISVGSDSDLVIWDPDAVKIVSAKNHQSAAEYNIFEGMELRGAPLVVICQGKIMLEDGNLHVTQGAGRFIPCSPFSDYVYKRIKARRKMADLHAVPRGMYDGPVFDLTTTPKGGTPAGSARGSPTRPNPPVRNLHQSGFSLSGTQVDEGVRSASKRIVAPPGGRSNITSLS
# SRSF9, Q13242, UniProt Q13242, whole entry: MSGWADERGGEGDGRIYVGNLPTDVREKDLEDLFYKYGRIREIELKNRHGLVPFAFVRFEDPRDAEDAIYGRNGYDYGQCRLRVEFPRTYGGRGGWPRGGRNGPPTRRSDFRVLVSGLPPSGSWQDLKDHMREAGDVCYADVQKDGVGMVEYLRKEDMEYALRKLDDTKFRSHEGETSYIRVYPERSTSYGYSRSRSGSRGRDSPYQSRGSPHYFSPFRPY
# The other results are listed elsewhere or left out. Only hits are listed; about a third recur on repeated control peptides.
# Columns and labels:
# Assay in all cases: PRISMA enrichment of interactor (LFQ) in peptide spot vs all other peptide spots (log2 fold change); higher = stronger / more specific binding of the interactor to the peptide
# CNN2, Q99439 = target: CNN2, Q99439
# Protocol: (§1)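 PRISMA: 221 full-length sORF-encoded peptides (3-15 aa), plus SOS1/GLUT1 control peptides, were spot-synthesized on cellulose membranes in triplicate. Membranes were incubated with HEK293T lysate, and bound proteins were identified by LC-MS/MS with LFQ. Enrichment is the log2 fold change versus all other peptide spots; only significant interactors are listed (cutoff c=6, x0=2.8).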
# CNOT1, A5YKK6 = target: CNOT1, A5YKK6
# Protocol: as §1
# CNOT3, O75175 = target: CNOT3, O75175
# Protocol: as §1
# LARP4, Q71RC2 = target: LARP4, Q71RC2
# Protocol: as §1
# MRM3, Q9HC36 = target: MRM3, Q9HC36
# Protocol: as §1
# PI4KA, P42356 = target: PI4KA, P42356
# Protocol: as §1
# PPAN-P2RY11 = target: PPAN-P2RY11
# Protocol: as §1
# RELCH, Q9P260 = target: RELCH, Q9P260
# Protocol: as §1
# UBA2, Q9UBT2 = target: UBA2, Q9UBT2
# Protocol: as §1
# COA7, Q96BR5 = target: COA7, Q96BR5
# Protocol: as §1
# NUTF2, P61970 = target: NUTF2, P61970
# Protocol: as §1
# NXF1, Q9UBU9 = target: NXF1, Q9UBU9
# Protocol: as §1
# PDCD6, O75340 = target: PDCD6, O75340
# Protocol: as §1
# SLC25A17, O43808 = target: SLC25A17, O43808
# Protocol: as §1
# STT3B, Q8TCJ2 = target: STT3B, Q8TCJ2
# Protocol: as §1
# TTLL11, Q8NHH1 = target: TTLL11, Q8NHH1
# Protocol: as §1
# CXXC1, Q9P0U4 = target: CXXC1, Q9P0U4
# Protocol: as §1
# GPD2, P43304 = target: GPD2, P43304
# Protocol: as §1
# IK, Q13123 = target: IK, Q13123
# Protocol: as §1
# NKAPD1, Q6ZUT1 = target: NKAPD1, Q6ZUT1
# Protocol: as §1
# TRAF2, Q12933 = target: TRAF2, Q12933
# Protocol: as §1
# UPF3B, Q9BZI7 = target: UPF3B, Q9BZI7
# Protocol: as §1
# DCTN3, O75935 = target: DCTN3, O75935
# Protocol: as §1
# GEMIN5, Q8TEQ6 = target: GEMIN5, Q8TEQ6
# Protocol: as §1
# PRPSAP1, Q14558 = target: PRPSAP1, Q14558
# Protocol: as §1
# RAP1GDS1, P52306 = target: RAP1GDS1, P52306
# Protocol: as §1
# RNF113A, O15541 = target: RNF113A, O15541
# Protocol: as §1
# DDX28, Q9NUL7 = target: DDX28, Q9NUL7
# Protocol: as §1
# FADS1, O60427 = target: FADS1, O60427
# Protocol: as §1
# NCK2, O43639 = target: NCK2, O43639
# Protocol: as §1
# NEPRO, Q6NW34 = target: NEPRO, Q6NW34
# Protocol: as §1
# PICALM, Q13492 = target: PICALM, Q13492
# Protocol: as §1
# SULT1C2, O00338 = target: SULT1C2, O00338
# Protocol: as §1
# TMED1, Q13445 = target: TMED1, Q13445
# Protocol: as §1
# ZC3HAV1, Q7Z2W4 = target: ZC3HAV1, Q7Z2W4
# Protocol: as §1
# DECR2, Q9NUI1 = target: DECR2, Q9NUI1
# Protocol: as §1
# KLF16, Q9BXK1 = target: KLF16, Q9BXK1
# Protocol: as §1
# RAP2B, P61225 = target: RAP2B, P61225
# Protocol: as §1
# SCD, O00767 = target: SCD, O00767
# Protocol: as §1
# SF3B4, Q15427 = target: SF3B4, Q15427
# Protocol: as §1
# TTLL12, Q14166 = target: TTLL12, Q14166
# Protocol: as §1
# DMD, P11532 = target: DMD, P11532
# Protocol: as §1
# LTF, P02788 = target: LTF, P02788
# Protocol: as §1
# MEMO1, Q9Y316 = target: MEMO1, Q9Y316
# Protocol: as §1
# DNAJC10, Q8IXB1 = target: DNAJC10, Q8IXB1
# Protocol: as §1
# HIRIP3, Q9BW71 = target: HIRIP3, Q9BW71
# Protocol: as §1
# POLDIP2, Q9Y2S7 = target: POLDIP2, Q9Y2S7
# Protocol: as §1
# DPYSL3, Q14195 = target: DPYSL3, Q14195
# Protocol: as §1
# STAG2, Q8N3U4 = target: STAG2, Q8N3U4
# Protocol: as §1
# DSC1, Q08554 = target: DSC1, Q08554
# Protocol: as §1
# IDH2, P48735 = target: IDH2, P48735
# Protocol: as §1
# MRPL2, Q5T653 = target: MRPL2, Q5T653
# Protocol: as §1
# RBM25, P49756 = target: RBM25, P49756
# Protocol: as §1
# DSTN, P60981 = target: DSTN, P60981
# Protocol: as §1
# NQO2, P16083 = target: NQO2, P16083
# Protocol: as §1
# NUP188, Q5SRE5 = target: NUP188, Q5SRE5
# Protocol: as §1
# RBIS, Q8N0T1 = target: RBIS, Q8N0T1
# Protocol: as §1
# RBM22, Q9NW64 = target: RBM22, Q9NW64
# Protocol: as §1
# DYNLL1, P63167 = target: DYNLL1, P63167
# Protocol: as §1
# MCM2, P49736 = target: MCM2, P49736
# Protocol: as §1
# NCDN, Q9UBB6 = target: NCDN, Q9UBB6
# Protocol: as §1
# NUP85, Q9BW27 = target: NUP85, Q9BW27
# Protocol: as §1
# EIF6, P56537 = target: EIF6, P56537
# Protocol: as §1
# LAMP1, P11279 = target: LAMP1, P11279
# Protocol: as §1
# NAA40, Q86UY6 = target: NAA40, Q86UY6
# Protocol: as §1
# RCN2, Q14257 = target: RCN2, Q14257
# Protocol: as §1
# RPS29, P62273 = target: RPS29, P62273
# Protocol: as §1
# SRSF9, Q13242 = target: SRSF9, Q13242
# Protocol: as §1
binder,measurement,setting,value
MTQESFA [MID1],PRISMA enrichment of interactor (log2),"CNN2, Q99439",5.2
MRFGLCQGT [KDM5A],PRISMA enrichment of interactor (log2),"CNOT1, A5YKK6",5.72
MIYGNKVLSLCLK [PSMA3-AS1],PRISMA enrichment of interactor (log2),"CNOT3, O75175",4.48
same,PRISMA enrichment of interactor (log2),"LARP4, Q71RC2",4.47
same,PRISMA enrichment of interactor (log2),"MRM3, Q9HC36",3.97
same,PRISMA enrichment of interactor (log2),"PI4KA, P42356",4.12
same,PRISMA enrichment of interactor (log2),PPAN-P2RY11,6.61
same,PRISMA enrichment of interactor (log2),"RELCH, Q9P260",4.49
same,PRISMA enrichment of interactor (log2),"UBA2, Q9UBT2",4.8
MFLG [PDE4DIP],PRISMA enrichment of interactor (log2),"COA7, Q96BR5",5.97
same,PRISMA enrichment of interactor (log2),"NUTF2, P61970",7.01
same,PRISMA enrichment of interactor (log2),"NXF1, Q9UBU9",5.62
same,PRISMA enrichment of interactor (log2),"PDCD6, O75340",5.91
same,PRISMA enrichment of interactor (log2),"SLC25A17, O43808",4.58
MDGYSLFPRA [MYPN],PRISMA enrichment of interactor (log2),"COA7, Q96BR5",7.35
same,PRISMA enrichment of interactor (log2),"STT3B, Q8TCJ2",4.72
same,PRISMA enrichment of interactor (log2),"TTLL11, Q8NHH1",7.08
MCLTGRA [EDEM3],PRISMA enrichment of interactor (log2),"CXXC1, Q9P0U4",5.46
same,PRISMA enrichment of interactor (log2),"GPD2, P43304",6.48
same,PRISMA enrichment of interactor (log2),"IK, Q13123",6.21
same,PRISMA enrichment of interactor (log2),"NKAPD1, Q6ZUT1",5.3
same,PRISMA enrichment of interactor (log2),"TRAF2, Q12933",8.02
same,PRISMA enrichment of interactor (log2),"UPF3B, Q9BZI7",4.74
MQRRGLSEIQT [CHCHD7],PRISMA enrichment of interactor (log2),"DCTN3, O75935",6.38
same,PRISMA enrichment of interactor (log2),"GEMIN5, Q8TEQ6",4.87
same,PRISMA enrichment of interactor (log2),"PRPSAP1, Q14558",5.15
same,PRISMA enrichment of interactor (log2),"RAP1GDS1, P52306",9.83
same,PRISMA enrichment of interactor (log2),"RNF113A, O15541",5.69
MCRDCPGEELRPR [LRRC32],PRISMA enrichment of interactor (log2),"DDX28, Q9NUL7",6.62
same,PRISMA enrichment of interactor (log2),"FADS1, O60427",5.22
same,PRISMA enrichment of interactor (log2),"NCK2, O43639",6.59
same,PRISMA enrichment of interactor (log2),"NEPRO, Q6NW34",5.02
same,PRISMA enrichment of interactor (log2),"PICALM, Q13492",6.79
same,PRISMA enrichment of interactor (log2),"SULT1C2, O00338",7.48
same,PRISMA enrichment of interactor (log2),"TMED1, Q13445",5.77
same,PRISMA enrichment of interactor (log2),"ZC3HAV1, Q7Z2W4",7.09
MCVGICEKKRICEV [TMEM71],PRISMA enrichment of interactor (log2),"DECR2, Q9NUI1",4.53
same,PRISMA enrichment of interactor (log2),"KLF16, Q9BXK1",3.93
same,PRISMA enrichment of interactor (log2),"RAP2B, P61225",4.48
same,PRISMA enrichment of interactor (log2),"SCD, O00767",5.02
same,PRISMA enrichment of interactor (log2),"SF3B4, Q15427",6.07
same,PRISMA enrichment of interactor (log2),"TTLL12, Q14166",4.41
MEGMLLA [NNMT],PRISMA enrichment of interactor (log2),"DMD, P11532",8.77
same,PRISMA enrichment of interactor (log2),"LTF, P02788",6.31
same,PRISMA enrichment of interactor (log2),"MEMO1, Q9Y316",5.93
MERCGAYACSV [AFF4],PRISMA enrichment of interactor (log2),"DNAJC10, Q8IXB1",6.61
same,PRISMA enrichment of interactor (log2),"HIRIP3, Q9BW71",5.24
same,PRISMA enrichment of interactor (log2),"POLDIP2, Q9Y2S7",7.33
MLIPRP [WBP1L],PRISMA enrichment of interactor (log2),"DPYSL3, Q14195",4.87
same,PRISMA enrichment of interactor (log2),"STAG2, Q8N3U4",4.65
MHLVRTEHKLPG [MAP4],PRISMA enrichment of interactor (log2),"DSC1, Q08554",7.06
same,PRISMA enrichment of interactor (log2),"IDH2, P48735",3.86
same,PRISMA enrichment of interactor (log2),"MRPL2, Q5T653",7.27
same,PRISMA enrichment of interactor (log2),"RBM25, P49756",13
MAAGRPLPDSSS [FAM204A],PRISMA enrichment of interactor (log2),"DSTN, P60981",8.03
same,PRISMA enrichment of interactor (log2),"NQO2, P16083",4.42
same,PRISMA enrichment of interactor (log2),"NUP188, Q5SRE5",7.02
same,PRISMA enrichment of interactor (log2),"RBIS, Q8N0T1",7.31
same,PRISMA enrichment of interactor (log2),"RBM22, Q9NW64",4.77
MQPGLQGLDRGCQAL [DMPK],PRISMA enrichment of interactor (log2),"DYNLL1, P63167",4.65
same,PRISMA enrichment of interactor (log2),"MCM2, P49736",4.91
same,PRISMA enrichment of interactor (log2),"NCDN, Q9UBB6",5.39
same,PRISMA enrichment of interactor (log2),"NUP85, Q9BW27",5.64
MGPGSAR [STAT6],PRISMA enrichment of interactor (log2),"EIF6, P56537",4.95
same,PRISMA enrichment of interactor (log2),"LAMP1, P11279",5.48
same,PRISMA enrichment of interactor (log2),"NAA40, Q86UY6",4.1
same,PRISMA enrichment of interactor (log2),"RCN2, Q14257",6.39
same,PRISMA enrichment of interactor (log2),"RPS29, P62273",5.19
same,PRISMA enrichment of interactor (log2),"SRSF9, Q13242",6.23

# Retrieved one by one from above, four records:
binder,measurement,setting,value
MIYGNKVLSLCLK [PSMA3-AS1],PRISMA enrichment of interactor (log2),"CNOT3, O75175",4.48
MHLVRTEHKLPG [MAP4],PRISMA enrichment of interactor (log2),"RBM25, P49756",13
MCRDCPGEELRPR [LRRC32],PRISMA enrichment of interactor (log2),"TMED1, Q13445",5.77
MFLG [PDE4DIP],PRISMA enrichment of interactor (log2),"NXF1, Q9UBU9",5.62
